# Reference: the supplement of paper PMC6411743
# ± gives the standard deviation of the averaged measurements. This is one part of the list.
# Target: T1, A0A0A0MRK6|Q13505 and related entries (UniProt Q13505)
# T1 sequence (whole entry): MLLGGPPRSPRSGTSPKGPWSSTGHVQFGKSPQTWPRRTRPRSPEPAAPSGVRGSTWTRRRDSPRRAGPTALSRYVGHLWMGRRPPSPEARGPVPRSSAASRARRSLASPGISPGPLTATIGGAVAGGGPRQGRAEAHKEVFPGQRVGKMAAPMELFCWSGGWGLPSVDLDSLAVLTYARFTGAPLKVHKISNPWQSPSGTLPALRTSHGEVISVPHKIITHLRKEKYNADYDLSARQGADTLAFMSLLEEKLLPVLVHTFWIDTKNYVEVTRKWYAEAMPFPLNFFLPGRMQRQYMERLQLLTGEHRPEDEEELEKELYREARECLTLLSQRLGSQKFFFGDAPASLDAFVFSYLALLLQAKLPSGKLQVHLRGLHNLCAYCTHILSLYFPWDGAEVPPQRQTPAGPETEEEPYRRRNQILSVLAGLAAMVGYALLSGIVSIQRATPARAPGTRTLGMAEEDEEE
# Assay: NP40-soluble protein abundance relative to vehicle (solubility fold change) (ratio); higher = more soluble protein in presence of GTP
# Protocol: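 Solubility proteome profiling in Jurkat crude lysate. Lysate was treated with Mg-GTP (0.1-10 mM) for 10 min at room temperature and 3 min at 37 °C, then solubilised with 0.8% NP40 and benzonase, followed by ultracentrifugation. Proteins were quantified by TMT10 LC-MS/MS; the value is the NP40-soluble abundance relative to the NP40-processed vehicle, from 3 independent experiments.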
smiles,measurement,setting,value
Nc1nc2c(ncn2[C@@H]2O[C@H](COP(=O)(O)OP(=O)(O)OP(=O)(O)O)[C@@H](O)[C@H]2O)c(=O)[nH]1 [guanosine triphosphate],NP40-soluble protein abundance,concentration: 0.1mM,1 ± 0.022
same,NP40-soluble protein abundance,concentration: 0.5mM,0.963 ± 0.017
same,NP40-soluble protein abundance,concentration: 1mM,0.936 ± 0.015
same,NP40-soluble protein abundance,concentration: 2mM,0.918 ± 0.06
same,NP40-soluble protein abundance,concentration: 4mM,0.919 ± 0.067
same,NP40-soluble protein abundance,concentration: 6mM,0.879 ± 0.065
same,NP40-soluble protein abundance,concentration: 8mM,0.847 ± 0.074
same,NP40-soluble protein abundance,concentration: 10mM,0.858 ± 0.084

# A second format for some results above.
smiles	measurement	setting	value
Nc1nc2c(ncn2[C@@H]2O[C@H](COP(=O)(O)OP(=O)(O)OP(=O)(O)O)[C@@H](O)[C@H]2O)c(=O)[nH]1 [guanosine triphosphate]	NP40-soluble protein abundance	concentration: 0.1mM	1 ± 0.022
same	NP40-soluble protein abundance	concentration: 0.5mM	0.963 ± 0.017
